Here are results for two molecules from paper PMC6386368, “Multimerization of Homo sapiens TRPA1 ion channel cytoplasmic domains” (PLoS ONE, 2019).

These are yes or no findings as the source states them, for the method shown. For some of these results: Binding seen in cells or lysates may run through a third protein. Some binding calls cover weakened binding; strength is not graded here. Tags and fused reporters may be left off the sequences shown.

The target of assay [1] is T1, MBPCC1: maltose-binding protein fusion of the human TRPA1 C-terminal coiled-coil CC1 (amino acids A1036-T1078) (human) (UniProt O75762).
T1 sequence: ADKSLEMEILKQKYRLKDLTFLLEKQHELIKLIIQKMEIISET
Put plainly: pull-down; amylose resin co-purification from cleared lysate of bacteria co-expressing ARD and MBPCC1; incubation and 4 washes at 4 C, Buffer A1T, with or without IP6 and/or AITC; anti-His Western blot.

Assay [2] has as its target T1, MBPCC1: maltose-binding protein fusion of the human TRPA1 C-terminal coiled-coil CC1 (amino acids A1036-T1078) (human). The assay is described as follows: pull-down; amylose resin co-purification from cleared lysate of bacteria co-expressing ARD and MBPCC1; incubation and 4 washes at 37 C, Buffer A1T, with or without IP6 and/or AITC; anti-His Western blot.
Assay [3] deals with MBPCC2: maltose-binding protein fusion of human TRPA1 amino acids D1082-K1113 (CC2) (human) (UniProt O75762). The assay is described as follows: SEC; MBPCC2 alone, absence or presence of IP6; Superdex 200 Increase, Buffer A1T (150 NaCl, 20 TrisHCl, pH 7.8, 2 mM TCEP); both purified.
The target in assay [4] is T1, MBPCC1: maltose-binding protein fusion of the human TRPA1 C-terminal coiled-coil CC1 (amino acids A1036-T1078) (human). Put plainly: SEC; purified MBPCC1 at a low concentration incubated with MBPCC2 and run together, absence or presence of IP6; Superdex 200 Increase, Buffer A1T; both purified.

B1: TRPA1 ARD construct (N-terminal ankyrin repeat domains, amino acids 446-639) (domain or fragment, human, UniProt O75762 446-639, looked up)
chain: KKSPLHFAASYGRINTCQRLLQDISDTRLLNEGDLHGMTPLHLAAKNGHDKVVQLLLKKGALFLSDHNGWTALHHASMGGYTQTMKVILDTNLKCTDRLDEDGNTALHFAAREGHAKAVALLLSHNADIVLNKQQASFLHLALHNKRKEVVLTIIRSKRWDECLKIFSHNSPGNKCPITEMIEYLPECMKVLLD
notes: human TRPA1 ankyrin repeat domains with resolvable density in the cryoEM structure, amino acids 446-639; Cloned into pET28b (Nhe I and Sac I) in frame with an N-terminal poly-histidine tag; also called ARDs; N-terminal ARD; source: E. coli BL21(DE3), co-expressed with MBPCC1, in cleared lysate; not shown: poly-histidine, N-terminal, kept
For the molecule B1, the binding result in assay [1] and in assay [2] was “binds” each time.
Take DSHCSFQDRFKKEQMEQRNSRWNTVLRAVKAK (domain or fragment, UniProt O75762 1082-1113) [MBPCC2: maltose-binding protein fusion of human TRPA1 amino acids D1082-K1113 (CC2)]: the binding result in assay [3] and in assay [4] was “no binding” in each case.
